A short description of the series: general procedure: Fmoc solid-phase peptide synthesis; Fmoc-Cys(Trt)-Wang resin; 2-chlorotrityl resin for truncated analogs; dicyclohexylcarbodiimide with 2 equiv. 1-hydroxybenzotriazole. Particulars: oxidative folding step, several disulfide bridges, sequence written open.

Plain letter strings leave the end groups untold.

For the sequence RSCIDTIPKSRCTAFQCKASMKYRLSFCRKTCGTC, the outcome is listed as “Repeated folding attempts with H19A, including addition of glutathione, failed to yield a major product”.
RSCIDTIPKSRCTAPQCKHSMKYRLSFCRATCGTC: the difficulty met result is “Lys30 to Ala (K30A) failed to yield a major product after 36 to 72 h”.

For the origin of these results see patent US6077680A (The University of Florida, dated 2000).
